In US10519099B2, “Cystobactamides” (priority 2014, dated 2019) one finds MIC data, which are given here for 1 compound.

Values after ≈ are worked out from the molar mass of the structure shown.

For this assay, the system named is Staphylococcus aureus ATCC29213. Put plainly: MIC microdilution, Staphylococcus aureus ATCC29213. As to conditions: larger panel. In kind it is cell-based. As to the method:
Indicator strains used in susceptibility assays were either part of our strain collection or purchased from the German Collection of Microorgansims and Cell Cultures (DSMZ) or from the American Type Culture Collection (ATCC). E. coli strain WT and corresponding E. coli mutants were kindly provided by Prof. Dr. P. Heisig, Pharmaceutical Biology and Microbiology, University of Hamburg. E. coli strains JW0401-1 (WT) and Δtsx were obtained from the CGSC collection.
MIC values were determined in standardized microdilution assays. Overnight cultures were diluted in the appropriate growth medium to achieve an inoculum of 10^4-10^6 cfu/mL. Yeasts were grown in Myc medium (1% phytone peptone, 1% glucose, 50 mM HEPES, pH 7.0), S. pneumonia and Enterococcus spp. in tryptic soy broth (TSB: 1.7% peptone casein, 0.3% peptone soymeal, 0.25% glucose, 0.5% NaCl, 0.25% K2HPO4; pH 7.3); M. smegmatis in Middlebrook 7H9 medium supplemented with 10% Middlebrook ADC enrichment and 2 ml/I glycerol). All other listed bacteria were grown in Müller-Hinton broth (0.2% beef infusion solids, 1.75% casein hydrolysate, 0.15% starch, pH 7.4). […] Growth inhibition was assessed by visual inspection and the MIC was defined as the lowest concentration of compound that inhibited visible growth.
(In general: Dilution methods test growth across graded concentrations, often in twofold steps.)

By MIC is commonly meant the smallest concentration in the dilution series that meets the test's criterion for growth inhibition. The low end stands for inhibition by little substance, the high end for a need for much substance. As for `O=C(O)c1cn(C2CC2)c2cc(N3CCNCC3)c(F)cc2c1=O` [CP, Ciprofloxacin, reference compound], the MIC was in the range of 0.05 to 0.1 µg/mL (≈ 0.151 to 0.302 µM).
